# Reference: the supplement of paper PMC9254222
# In all, about 1,100 compounds were measured (“Wnt reporter firefly/Renilla luciferase ratio relative to plate median”: median about 1.1, highest 2% from about 1.6 on). Only a part is listed here, and it is no random draw.
# Tested on: HEK293T (UBE3A T485A transfected, BAR Wnt reporter)
# Experiment: Wnt reporter firefly/Renilla luciferase ratio relative to plate median (fold (linear ratio)); higher = more Wnt/beta-catenin reporter activation
# Conditions: 24 h
# Outline: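 Using Fugene 6, HEK293T cells in white 384-well plates (4500 cells/well; DMEM, 10% FBS, 37°C, 5% CO2) were transfected with a BAR firefly luciferase Wnt reporter, TK-Renilla and an expression plasmid. After four hours, robots dosed the chemicals at 0.01–100 uM, and a Dual-Glo luciferase readout followed 24 h later. Per-plate median-centred firefly/Renilla ratios gave Wnt activity, while per-plate median-centred raw Renilla signals gave cell health. Four biological replicates were averaged.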
SMILES,Wnt reporter firefly/Renilla luciferase ratio (concentration: 0.1 uM),Wnt reporter firefly/Renilla luciferase ratio (concentration: 1 uM),Wnt reporter firefly/Renilla luciferase ratio (concentration: 10 uM),Wnt reporter firefly/Renilla luciferase ratio (concentration: 100 uM),Wnt reporter firefly/Renilla luciferase ratio (concentration: 0.01 uM)
"Cc1cccc(C)c1N [2,6-Dimethylaniline]",1.15,1.04,1.26,1.15,–
O=C(NC(=O)c1c(F)cccc1F)Nc1cc(Cl)c(OC(F)(F)C(F)F)c(Cl)c1 [Hexaflumuron],1.11,1.01,0.995,0.99,–
CCCSP(=O)(OCC)SCCC [Ethoprop],1.32,1.13,1.15,0.804,1.21
COC(=O)NS(=O)(=O)c1ccc(N)cc1 [Asulam],1.19,1.06,0.993,1.33,1.32
CNC(=S)[S-].O.O.O.[Na+] [Metam-sodium hydrate],0.921,0.977,1.06,1.1,0.905
CCCCOC(=O)c1ccccc1C(=O)O [Monobutyl phthalate],–,2.24,–,1.75,–
COc1ccc(-c2ccccc2)cc1NNC(=O)OC(C)C [Bifenazate],1.07,1.08,0.882,0.576,1.03
COP(=S)(OC)SCN1C(=O)c2ccccc2C1=O [Phosmet],1.07,0.925,1.47,1.65,–
Oc1cccc2cccnc12 [8-Hydroxyquinoline],1.01,1.15,0.909,–,–
Clc1nc(Cl)c(Cl)c(Cl)c1Cl [Pentachloropyridine],0.898,0.89,0.876,1.23,–
"Cc1cc(Cc2ccc(N)c(C)c2)ccc1N [4,4'-Methylenebis(2-methylaniline)]",0.933,0.955,0.928,0.331,–
O=C(Nc1ccccc1)Nc1cnns1 [Thidiazuron],0.856,0.907,0.822,0.155,0.815
COS(C)(=O)=O [Methyl methanesulfonate],0.999,0.797,1.14,1.24,–
O=C(O)c1cc(Oc2ccc(C(F)(F)F)cc2Cl)ccc1[N+](=O)[O-] [Acifluorfen],1.12,1.2,1.16,1.25,1.13
O=C(O)COc1nc(Cl)c(Cl)cc1Cl [Triclopyr],1.25,1.28,1.22,1.2,1.5
COc1ccc(C(=CC(=O)N2CCOCC2)c2ccc(Cl)cc2)cc1OC [Dimethomorph],0.875,1.02,0.911,0.379,0.683

# Quoted from the listing:
# Wnt reporter firefly/Renilla luciferase ratio (concentration: 1 uM), COS(C)(=O)=O [Methyl methanesulfonate] is entered as 0.797
# Wnt reporter firefly/Renilla luciferase ratio (concentration: 0.1 uM), O=C(O)COc1nc(Cl)c(Cl)cc1Cl [Triclopyr] is entered as 1.25
